The list shows a part of the results.

Amino acid sequences for entries named in this document (tags omitted). A change or cut given only in a name is not applied to a line headed by its entry.
UniProt P58166: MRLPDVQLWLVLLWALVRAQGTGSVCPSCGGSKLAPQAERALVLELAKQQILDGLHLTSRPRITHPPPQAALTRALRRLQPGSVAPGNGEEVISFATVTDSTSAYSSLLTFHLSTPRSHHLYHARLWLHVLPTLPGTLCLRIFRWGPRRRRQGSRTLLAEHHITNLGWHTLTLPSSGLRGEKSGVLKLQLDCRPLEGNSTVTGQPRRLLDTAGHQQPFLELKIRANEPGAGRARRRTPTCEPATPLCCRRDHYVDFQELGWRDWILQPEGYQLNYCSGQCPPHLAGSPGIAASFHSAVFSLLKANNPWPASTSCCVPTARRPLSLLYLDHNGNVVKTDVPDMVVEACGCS
UniProt P38935: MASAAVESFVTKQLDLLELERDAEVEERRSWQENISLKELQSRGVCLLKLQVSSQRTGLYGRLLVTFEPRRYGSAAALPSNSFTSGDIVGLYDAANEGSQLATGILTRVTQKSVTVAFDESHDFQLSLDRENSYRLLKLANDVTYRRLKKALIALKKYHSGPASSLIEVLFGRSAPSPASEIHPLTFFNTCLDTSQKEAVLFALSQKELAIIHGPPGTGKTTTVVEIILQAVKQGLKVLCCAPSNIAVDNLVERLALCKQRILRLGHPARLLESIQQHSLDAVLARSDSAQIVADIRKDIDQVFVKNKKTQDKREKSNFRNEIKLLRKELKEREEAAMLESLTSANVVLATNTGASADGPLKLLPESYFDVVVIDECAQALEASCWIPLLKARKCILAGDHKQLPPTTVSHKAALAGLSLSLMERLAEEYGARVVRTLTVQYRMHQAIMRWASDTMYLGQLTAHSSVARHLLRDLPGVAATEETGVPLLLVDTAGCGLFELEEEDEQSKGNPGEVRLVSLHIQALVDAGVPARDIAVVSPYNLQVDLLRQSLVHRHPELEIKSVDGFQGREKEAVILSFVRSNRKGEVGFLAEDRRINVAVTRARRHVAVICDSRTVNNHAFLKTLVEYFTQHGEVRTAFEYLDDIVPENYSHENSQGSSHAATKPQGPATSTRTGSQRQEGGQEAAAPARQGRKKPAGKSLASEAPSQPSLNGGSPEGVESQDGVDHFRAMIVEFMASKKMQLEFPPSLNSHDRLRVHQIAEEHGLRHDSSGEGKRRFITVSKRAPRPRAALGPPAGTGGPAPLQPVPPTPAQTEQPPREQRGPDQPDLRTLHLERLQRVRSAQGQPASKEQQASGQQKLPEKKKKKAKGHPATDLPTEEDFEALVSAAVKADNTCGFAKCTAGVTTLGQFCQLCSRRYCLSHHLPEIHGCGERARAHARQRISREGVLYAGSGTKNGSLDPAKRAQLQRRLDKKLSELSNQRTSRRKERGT
UniProt Q9Y366: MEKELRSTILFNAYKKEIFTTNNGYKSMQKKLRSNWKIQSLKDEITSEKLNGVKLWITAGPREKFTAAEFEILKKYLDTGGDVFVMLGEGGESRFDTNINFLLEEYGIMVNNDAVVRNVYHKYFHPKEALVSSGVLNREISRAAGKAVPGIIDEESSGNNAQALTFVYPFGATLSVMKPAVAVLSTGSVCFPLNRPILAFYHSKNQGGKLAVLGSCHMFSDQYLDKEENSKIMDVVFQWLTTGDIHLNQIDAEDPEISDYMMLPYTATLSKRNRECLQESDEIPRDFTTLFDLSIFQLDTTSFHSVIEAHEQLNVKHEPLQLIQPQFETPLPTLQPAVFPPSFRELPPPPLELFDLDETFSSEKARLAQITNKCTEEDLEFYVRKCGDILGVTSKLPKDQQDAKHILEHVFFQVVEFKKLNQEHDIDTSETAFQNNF
UniProt Q8WYH8, whole entry, looked up: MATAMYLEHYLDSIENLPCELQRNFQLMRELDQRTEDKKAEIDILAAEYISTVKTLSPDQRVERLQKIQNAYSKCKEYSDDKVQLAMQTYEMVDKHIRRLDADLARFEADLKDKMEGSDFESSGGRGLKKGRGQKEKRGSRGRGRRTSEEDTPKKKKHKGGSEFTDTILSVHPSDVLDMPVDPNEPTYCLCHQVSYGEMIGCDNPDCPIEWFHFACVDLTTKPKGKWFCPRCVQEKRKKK
UniProt P22692: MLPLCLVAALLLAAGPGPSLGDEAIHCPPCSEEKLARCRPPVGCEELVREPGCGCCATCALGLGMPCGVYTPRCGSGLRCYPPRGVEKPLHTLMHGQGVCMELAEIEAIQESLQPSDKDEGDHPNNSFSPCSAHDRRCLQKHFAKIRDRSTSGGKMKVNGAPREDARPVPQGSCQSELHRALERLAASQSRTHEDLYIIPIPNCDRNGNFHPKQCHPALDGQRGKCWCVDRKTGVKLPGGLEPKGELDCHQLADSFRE
UniProt Q9NWB7: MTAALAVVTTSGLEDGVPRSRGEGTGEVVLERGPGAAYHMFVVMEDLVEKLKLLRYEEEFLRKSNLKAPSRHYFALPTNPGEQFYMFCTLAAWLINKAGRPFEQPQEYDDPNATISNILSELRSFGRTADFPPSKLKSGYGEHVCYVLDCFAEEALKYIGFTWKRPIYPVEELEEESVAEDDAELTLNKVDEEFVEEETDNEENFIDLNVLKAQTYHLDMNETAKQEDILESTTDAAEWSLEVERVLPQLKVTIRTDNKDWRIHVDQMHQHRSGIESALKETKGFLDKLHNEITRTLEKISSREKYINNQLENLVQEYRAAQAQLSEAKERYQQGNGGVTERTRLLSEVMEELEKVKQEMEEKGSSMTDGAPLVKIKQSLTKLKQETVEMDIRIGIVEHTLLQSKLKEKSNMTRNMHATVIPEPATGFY
UniProt O60725, whole entry, looked up: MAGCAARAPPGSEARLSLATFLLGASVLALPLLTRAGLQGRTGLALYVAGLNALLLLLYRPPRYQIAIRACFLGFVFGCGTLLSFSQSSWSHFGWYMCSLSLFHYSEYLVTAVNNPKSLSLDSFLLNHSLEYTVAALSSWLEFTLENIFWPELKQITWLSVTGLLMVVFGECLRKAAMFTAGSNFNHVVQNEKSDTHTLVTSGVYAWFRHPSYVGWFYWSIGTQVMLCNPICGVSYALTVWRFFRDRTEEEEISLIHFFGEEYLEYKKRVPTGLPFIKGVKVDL
UniProt A2RU49: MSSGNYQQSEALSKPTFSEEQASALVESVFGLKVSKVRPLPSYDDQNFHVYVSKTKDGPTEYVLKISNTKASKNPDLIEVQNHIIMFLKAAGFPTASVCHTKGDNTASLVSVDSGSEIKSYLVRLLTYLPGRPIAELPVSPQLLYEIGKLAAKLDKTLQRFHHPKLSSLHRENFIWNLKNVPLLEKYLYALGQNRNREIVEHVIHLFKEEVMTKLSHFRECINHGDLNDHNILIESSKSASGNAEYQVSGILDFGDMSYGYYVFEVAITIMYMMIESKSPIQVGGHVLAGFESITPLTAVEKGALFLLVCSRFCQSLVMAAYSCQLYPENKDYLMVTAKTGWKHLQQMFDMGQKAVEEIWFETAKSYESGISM
IGKV3D-7, A0A0C4DH55, UniProt A0A0C4DH55, whole entry, looked up: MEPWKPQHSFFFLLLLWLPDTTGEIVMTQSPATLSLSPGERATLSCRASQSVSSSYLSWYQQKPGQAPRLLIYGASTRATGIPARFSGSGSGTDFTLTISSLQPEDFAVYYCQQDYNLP
UniProt Q96EW2: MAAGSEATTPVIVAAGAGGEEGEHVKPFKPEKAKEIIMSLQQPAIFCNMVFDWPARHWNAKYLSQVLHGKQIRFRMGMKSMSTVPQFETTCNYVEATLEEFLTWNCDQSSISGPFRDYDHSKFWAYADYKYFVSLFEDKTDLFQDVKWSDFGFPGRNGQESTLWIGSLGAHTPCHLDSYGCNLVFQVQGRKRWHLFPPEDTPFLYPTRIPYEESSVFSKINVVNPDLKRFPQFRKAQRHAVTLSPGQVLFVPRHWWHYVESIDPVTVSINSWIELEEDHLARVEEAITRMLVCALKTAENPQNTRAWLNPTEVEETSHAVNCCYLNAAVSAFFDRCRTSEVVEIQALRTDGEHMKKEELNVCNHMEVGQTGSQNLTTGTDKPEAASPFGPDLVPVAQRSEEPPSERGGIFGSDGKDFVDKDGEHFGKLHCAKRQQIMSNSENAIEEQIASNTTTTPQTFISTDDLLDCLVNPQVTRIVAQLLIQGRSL
UniProt Q8NBZ0, whole entry, looked up: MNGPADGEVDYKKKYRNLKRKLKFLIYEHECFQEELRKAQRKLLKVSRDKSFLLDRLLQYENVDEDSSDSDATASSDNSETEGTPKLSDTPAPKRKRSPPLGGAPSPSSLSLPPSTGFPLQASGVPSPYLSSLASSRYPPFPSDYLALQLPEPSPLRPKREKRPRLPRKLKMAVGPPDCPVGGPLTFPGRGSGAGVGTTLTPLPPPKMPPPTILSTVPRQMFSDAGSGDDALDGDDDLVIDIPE
UniProt Q96LU5: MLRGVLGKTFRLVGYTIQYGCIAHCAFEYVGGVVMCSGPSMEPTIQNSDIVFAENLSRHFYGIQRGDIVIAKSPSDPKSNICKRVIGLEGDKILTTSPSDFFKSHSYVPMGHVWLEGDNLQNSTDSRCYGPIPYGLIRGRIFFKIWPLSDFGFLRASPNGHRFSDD
UniProt Q9HBG6: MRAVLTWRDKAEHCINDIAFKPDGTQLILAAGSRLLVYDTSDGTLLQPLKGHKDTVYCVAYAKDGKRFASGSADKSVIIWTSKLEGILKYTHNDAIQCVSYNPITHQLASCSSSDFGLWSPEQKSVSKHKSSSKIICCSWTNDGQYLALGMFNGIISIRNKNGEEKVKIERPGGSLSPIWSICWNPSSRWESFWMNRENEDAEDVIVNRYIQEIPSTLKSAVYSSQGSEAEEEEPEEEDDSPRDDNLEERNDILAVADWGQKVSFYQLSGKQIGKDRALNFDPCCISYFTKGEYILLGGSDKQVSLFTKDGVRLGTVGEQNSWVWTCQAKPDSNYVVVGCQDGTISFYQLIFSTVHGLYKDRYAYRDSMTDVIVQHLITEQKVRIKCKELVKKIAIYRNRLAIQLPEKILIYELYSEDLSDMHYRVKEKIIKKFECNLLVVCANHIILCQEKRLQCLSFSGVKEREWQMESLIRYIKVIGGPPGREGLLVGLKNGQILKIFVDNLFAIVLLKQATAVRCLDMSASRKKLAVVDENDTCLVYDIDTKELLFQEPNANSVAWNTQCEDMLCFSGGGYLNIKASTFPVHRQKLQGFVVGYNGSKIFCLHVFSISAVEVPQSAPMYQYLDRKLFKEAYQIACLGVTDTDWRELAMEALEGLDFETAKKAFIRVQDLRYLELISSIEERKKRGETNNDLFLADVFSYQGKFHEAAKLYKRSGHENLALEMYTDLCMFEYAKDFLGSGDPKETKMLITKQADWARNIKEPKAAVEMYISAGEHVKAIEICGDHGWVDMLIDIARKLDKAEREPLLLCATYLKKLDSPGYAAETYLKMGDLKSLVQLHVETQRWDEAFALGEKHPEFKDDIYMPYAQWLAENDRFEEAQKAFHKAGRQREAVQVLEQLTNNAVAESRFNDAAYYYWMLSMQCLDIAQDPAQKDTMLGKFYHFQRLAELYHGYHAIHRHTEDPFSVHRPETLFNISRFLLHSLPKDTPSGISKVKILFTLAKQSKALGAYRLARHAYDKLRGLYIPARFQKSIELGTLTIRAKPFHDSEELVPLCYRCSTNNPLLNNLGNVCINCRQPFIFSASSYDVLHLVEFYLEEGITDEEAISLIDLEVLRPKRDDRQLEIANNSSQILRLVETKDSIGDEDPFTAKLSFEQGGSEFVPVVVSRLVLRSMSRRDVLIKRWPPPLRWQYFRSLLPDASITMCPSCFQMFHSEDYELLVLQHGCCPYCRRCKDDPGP
UniProt Q9NRR6: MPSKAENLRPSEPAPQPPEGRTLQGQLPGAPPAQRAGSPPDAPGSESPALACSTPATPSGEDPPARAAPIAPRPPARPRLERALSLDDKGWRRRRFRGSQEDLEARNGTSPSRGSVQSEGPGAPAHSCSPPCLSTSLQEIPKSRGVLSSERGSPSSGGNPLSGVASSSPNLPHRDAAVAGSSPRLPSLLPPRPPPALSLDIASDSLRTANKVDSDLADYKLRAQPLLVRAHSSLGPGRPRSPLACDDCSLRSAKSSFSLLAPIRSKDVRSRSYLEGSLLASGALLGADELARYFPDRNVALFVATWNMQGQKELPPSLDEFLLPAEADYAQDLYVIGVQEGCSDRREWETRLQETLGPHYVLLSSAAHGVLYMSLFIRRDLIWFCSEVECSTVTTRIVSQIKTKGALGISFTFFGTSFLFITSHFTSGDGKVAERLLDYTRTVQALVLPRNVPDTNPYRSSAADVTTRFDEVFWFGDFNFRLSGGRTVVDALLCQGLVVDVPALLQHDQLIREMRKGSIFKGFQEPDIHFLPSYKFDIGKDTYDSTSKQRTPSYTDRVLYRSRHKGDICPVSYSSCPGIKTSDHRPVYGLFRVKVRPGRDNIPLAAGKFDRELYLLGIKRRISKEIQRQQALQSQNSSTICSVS

Compound in the assay: CC1=C(C(CC(=O)N1)C2=CC=C(C=C2)C(F)(F)F)C(=O)NC3=C(C=C4C(=C3)C=NN4)F
As to the kind of experiment: log2 fold change, soluble protein after heating vs DMSO (PISA); higher = thermal stabilisation; K562 lysate, 10 uM; active = over 0.2 and 3.5 SD of the protein, either way, in both replicates (recomputed). An outline of the steps:
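The values are log-two fold changes in thermal stability compared with solvent controls and come from duplicates. They were obtained by TMTpro 16plex LC-MS/MS, with channel sums equalised, on the supernatant after 21,000xg for 90 min. That supernatant came from crude K562 extract at 1 mg/mL protein treated with 10 μM compound for 30 min, heated for 3 min across 48°C-58°C, pooled and brought to 0.5% NP-40 at 4°C.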
With INHBE (UniProt P58166), the log2 fold change was inactive: 0.089. The figure for IGHMBP2 (UniProt P38935) is inactive: 0.008; for IGLC3 (UniProt P0DOY3) it is inactive: 2.14. The result for IFT52 (UniProt Q9Y366) reads inactive: 0.171. The figure for ING5 (UniProt Q8WYH8) is inactive: -0.066. HSPA8 (UniProt E9PN89): the log2 fold change was inactive: -0.036. Regarding IGFBP4 (UniProt P22692), the log2 fold change is inactive: -0.021. The figure for IMPDH2 (UniProt H0Y4R1) is inactive: -0.019; for IFT57 (UniProt Q9NWB7) it is inactive: -0.12. The result for ICMT (UniProt O60725) reads inactive: 0.15; that for HYKK (UniProt A2RU49), inactive: 0.09; that for IGKV3D-7, A0A0C4DH55, inactive: 1.82. For the target HSPBAP1 (UniProt Q96EW2), the log2 fold change was inactive: -0.214. The result for IGKC (UniProt P01834) reads inactive: 2.07; that for INO80E (UniProt Q8NBZ0), inactive: 0.081; that for IMMP1L (UniProt Q96LU5), inactive: -0.036. The result for IFT122 isoform 5 (UniProt Q9HBG6) reads inactive: -0.035; that for INPP5E (UniProt Q9NRR6), inactive: -0.053.

For HTD2 (UniProt P86397), the log2 fold change is inactive: -0.05. The result for IL27RA (UniProt Q6UWB1) reads inactive: -0.006.

The values above are taken from the supplement of paper PMC10849652.
